Drawing on the supplement of paper PMC12873370, this text covers cell viability for 22 molecules.

Values joined by “and” are separate entries in the source; they are usually repeats but may differ in a detail not shown here. Identical values can stand only once. The list shows a part of the results. Repeats are few or missing, and single values can be far off.

In assay [1] the test system is MEPP (mouse ovarian epithelium Trp53/Pten KO). Nature of the assay: cell viability relative to untreated (fraction); higher = less growth inhibition. The conditions noted are these: 5 µM; 3 days.
For assay [2], the system named is PREPP (mouse prostate epithelium Trp53/Pten KO). The description is as above. The conditions noted are these: 5 µM; 3 days.

For `O=c1cc(-c2ccc(O)cc2)oc2cc(O)cc(O)c12`, the cell viability in assay [1] is 1.13; in assay [2], 1.18.
As for `COC(=O)[C@H]1[C@H]2C[C@@H]3c4[nH]c5cc(OC)ccc5c4CCN3C[C@H]2C[C@@H](OC(=O)c2cc(OC)c(OC)c(OC)c2)[C@@H]1OC`, the cell viability in assay [1] was 0.778 and 1.1; in assay [2], 1.19 and 0.696.
In the case of `c1c[nH]cn1`, the cell viability in assay [1] turned out to be 0.923; in assay [2] it was 1.05.
In the same order, the values of `O=C(O)c1ccccc1O` are 1.01 and 0.983.
In the same order, the values of `CN(C)c1ccc(O)c2c1C[C@H]1C[C@H]3[C@H](N(C)C)C(O)=C(C(N)=O)C(=O)[C@@]3(O)C(O)=C1C2=O` are 0.853 and 1.05.
Turning to `CCOC(=O)/C=C/c1ccc(O)c(OC)c1`, the cell viability in assay [1] amounted to 1.15; in assay [2], 1.13.
In the same order, the values of `COc1cccc(CC(=O)O)c1` are 0.959 and 0.892.
Take `O=C(O)c1cc(O)ccc1O`: the figures for the cell viability in assay [1] and in assay [2] were 0.996 and 0.939, respectively.
Consider `N[C@H](CC(=O)O)C(=O)O`, for which the cell viability in assay [1] was 1.27; in assay [2] it was 1.01.
In the same order, the values of `CC(CC(=O)O)C(=O)O` (centres undefined) are 0.941 and 1.
Turning to `N[C@@H](CCO)C(=O)O`, the cell viability was 0.941 in assay [1] and 0.905 in assay [2].
In the case of `COc1ccc(O)c(C(=O)O)c1`, the cell viability in assay [1] worked out at 1.22; in assay [2] it was 0.914.
With `O=C(O)[C@@H](O)Cc1ccccc1`, the cell viability in assay [1] turned out to be 0.944; in assay [2], 0.908.
`Cc1cc(-n2c(=O)[nH]c(=O)n(C)c2=O)ccc1Oc1ccc(SC(F)(F)F)cc1`: the cell viability in assay [1] is 0.872; in assay [2], 0.899.
As for `O=c1c(-c2ccc(O)cc2)coc2cc(O[C@@H]3O[C@H](CO)[C@@H](O)[C@H](O)[C@H]3O)ccc12`, the results for the cell viability in assay [1] and in assay [2] were 0.896 and 0.853, respectively.
In the same order, the values of `COc1cc2c(cc1OC)[C@@H]1Cc3ccc(OC)c(OC)c3CN1CC2` are 0.927 and 1.09.
On to `CC[C@H](C)[C@@H]([C@@H](CC(=O)N1CCC[C@H]1[C@H](OC)[C@@H](C)C(=O)N[C@@H](Cc1ccccc1)c1nccs1)OC)N(C)C(=O)[C@@H](NC(=O)[C@H](C(C)C)N(C)C)C(C)C`, for which the cell viability was determined as 0.546 in assay [1] and 0.705 in assay [2].
With `c1ccc2c(Cc3c[nH]c4ccccc34)c[nH]c2c1`, the cell viability worked out at 1.07 in assay [1] and 0.902 in assay [2].
For `NCC[C@H](O)C(=O)N[C@@H]1C[C@H](N)[C@@H](O[C@H]2O[C@H](CN)[C@@H](O)[C@H](O)[C@H]2O)[C@H](O)[C@H]1O[C@H]1O[C@H](CO)[C@@H](O)[C@H](N)[C@H]1O`, the cell viability in assay [1] worked out at 1.18; in assay [2] it was 1.07.
As for `O=C(/C=C/c1ccc(O)c(O)c1)OC1[C@H](O)CC(O)(C(=O)O)C[C@H]1O` (some centres undefined), the cell viability in assay [1] stood at 0.863; in assay [2], 0.835.
In the same order, the values of `COc1cc(CC(=O)O)ccc1O` are 1.46 and 1.06.
In the same order, the values of `NC1(C(=O)O)CC1` are 1.06 and 0.878.
